Our source for the binding values is publication doi:10.1101/605451.

Amino acid sequences for entries named in this document (tags omitted). A change or cut given only in a name is not applied to a line headed by its entry.
UniProt Q15041: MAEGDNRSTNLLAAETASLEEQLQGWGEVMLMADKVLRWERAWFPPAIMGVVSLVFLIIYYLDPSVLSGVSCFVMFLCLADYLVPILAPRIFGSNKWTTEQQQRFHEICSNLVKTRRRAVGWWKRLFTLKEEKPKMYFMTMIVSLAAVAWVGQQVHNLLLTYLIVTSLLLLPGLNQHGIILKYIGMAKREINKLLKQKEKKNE
UniProt Q6ZSS7: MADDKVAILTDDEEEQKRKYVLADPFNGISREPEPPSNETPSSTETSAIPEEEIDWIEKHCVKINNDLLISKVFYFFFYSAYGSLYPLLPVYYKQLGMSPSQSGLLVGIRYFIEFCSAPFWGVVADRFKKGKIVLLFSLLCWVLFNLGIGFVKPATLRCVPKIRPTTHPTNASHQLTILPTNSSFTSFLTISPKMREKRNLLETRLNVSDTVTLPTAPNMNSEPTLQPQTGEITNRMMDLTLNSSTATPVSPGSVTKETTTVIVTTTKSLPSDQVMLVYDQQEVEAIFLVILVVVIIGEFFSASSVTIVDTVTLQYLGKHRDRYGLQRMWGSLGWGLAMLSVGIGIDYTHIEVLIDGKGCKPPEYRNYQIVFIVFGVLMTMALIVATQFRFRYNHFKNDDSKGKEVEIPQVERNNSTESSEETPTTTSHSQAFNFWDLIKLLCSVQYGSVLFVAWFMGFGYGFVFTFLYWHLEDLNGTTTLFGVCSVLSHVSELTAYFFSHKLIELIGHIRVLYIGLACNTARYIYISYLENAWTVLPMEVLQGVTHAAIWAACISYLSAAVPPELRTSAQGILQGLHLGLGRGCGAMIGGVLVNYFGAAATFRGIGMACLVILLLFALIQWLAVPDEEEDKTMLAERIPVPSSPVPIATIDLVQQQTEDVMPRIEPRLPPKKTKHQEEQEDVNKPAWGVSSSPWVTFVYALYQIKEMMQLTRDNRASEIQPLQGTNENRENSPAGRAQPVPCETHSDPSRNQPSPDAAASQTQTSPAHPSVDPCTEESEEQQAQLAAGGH
UniProt P63167: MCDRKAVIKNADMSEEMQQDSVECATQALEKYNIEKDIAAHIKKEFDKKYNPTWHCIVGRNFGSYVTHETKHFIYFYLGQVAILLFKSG
UniProt O94972: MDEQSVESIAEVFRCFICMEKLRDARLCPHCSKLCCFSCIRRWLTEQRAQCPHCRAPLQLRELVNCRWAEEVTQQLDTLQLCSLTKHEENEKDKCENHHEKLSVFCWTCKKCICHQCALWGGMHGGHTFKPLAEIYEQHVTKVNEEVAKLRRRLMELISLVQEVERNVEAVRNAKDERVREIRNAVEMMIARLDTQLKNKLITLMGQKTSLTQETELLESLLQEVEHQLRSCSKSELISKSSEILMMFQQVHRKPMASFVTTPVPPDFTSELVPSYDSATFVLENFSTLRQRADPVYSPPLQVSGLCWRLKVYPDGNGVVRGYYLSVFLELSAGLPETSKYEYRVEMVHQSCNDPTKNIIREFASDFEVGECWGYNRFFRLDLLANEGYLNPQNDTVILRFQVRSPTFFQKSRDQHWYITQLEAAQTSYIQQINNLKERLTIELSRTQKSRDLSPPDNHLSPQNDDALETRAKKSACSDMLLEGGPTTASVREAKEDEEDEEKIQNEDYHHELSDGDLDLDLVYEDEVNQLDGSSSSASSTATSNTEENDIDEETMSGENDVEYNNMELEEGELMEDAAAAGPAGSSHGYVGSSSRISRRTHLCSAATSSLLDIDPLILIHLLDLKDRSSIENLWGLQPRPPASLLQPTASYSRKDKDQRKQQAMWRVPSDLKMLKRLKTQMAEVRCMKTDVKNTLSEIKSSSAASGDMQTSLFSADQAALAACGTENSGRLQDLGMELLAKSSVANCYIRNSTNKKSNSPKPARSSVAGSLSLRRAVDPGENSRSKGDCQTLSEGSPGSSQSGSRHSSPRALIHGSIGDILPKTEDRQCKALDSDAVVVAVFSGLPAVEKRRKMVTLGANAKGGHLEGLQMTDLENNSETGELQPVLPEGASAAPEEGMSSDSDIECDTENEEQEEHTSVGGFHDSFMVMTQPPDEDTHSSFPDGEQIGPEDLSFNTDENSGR
UniProt O00560: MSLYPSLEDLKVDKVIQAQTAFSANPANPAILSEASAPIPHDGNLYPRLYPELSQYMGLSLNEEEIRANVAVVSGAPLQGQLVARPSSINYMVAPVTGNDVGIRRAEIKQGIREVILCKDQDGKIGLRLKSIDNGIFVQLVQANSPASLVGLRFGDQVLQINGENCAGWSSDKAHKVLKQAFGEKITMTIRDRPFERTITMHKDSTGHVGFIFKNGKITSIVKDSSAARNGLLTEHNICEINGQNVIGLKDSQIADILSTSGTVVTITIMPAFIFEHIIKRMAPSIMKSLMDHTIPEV
UniProt Q8NEA5: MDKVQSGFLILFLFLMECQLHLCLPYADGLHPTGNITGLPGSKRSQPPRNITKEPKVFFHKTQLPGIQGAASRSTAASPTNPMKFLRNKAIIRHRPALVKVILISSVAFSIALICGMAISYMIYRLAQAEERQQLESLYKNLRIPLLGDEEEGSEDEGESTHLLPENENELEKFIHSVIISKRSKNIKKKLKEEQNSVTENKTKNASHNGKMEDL

Common to all, as to assay: two-hybrid
Test [1] deals with T1, SUCLA2 (human) (UniProt Q9P2R7).
T1 sequence: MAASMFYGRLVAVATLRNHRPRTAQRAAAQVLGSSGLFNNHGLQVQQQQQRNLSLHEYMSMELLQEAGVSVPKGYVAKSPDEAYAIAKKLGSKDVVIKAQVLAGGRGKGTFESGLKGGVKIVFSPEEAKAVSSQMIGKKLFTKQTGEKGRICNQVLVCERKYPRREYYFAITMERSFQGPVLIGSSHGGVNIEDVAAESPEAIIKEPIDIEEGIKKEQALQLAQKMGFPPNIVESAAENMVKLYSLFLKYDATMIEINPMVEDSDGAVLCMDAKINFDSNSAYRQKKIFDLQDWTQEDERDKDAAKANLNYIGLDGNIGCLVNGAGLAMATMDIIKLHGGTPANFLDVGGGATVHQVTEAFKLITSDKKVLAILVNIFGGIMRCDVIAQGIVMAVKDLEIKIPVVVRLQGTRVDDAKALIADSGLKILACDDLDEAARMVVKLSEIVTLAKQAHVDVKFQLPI

Test [2] deals with PNKP Pro20Ser (human) (UniProt Q96T60).
Test [3] deals with PNKP, polynucleotide kinase 3'-phosphatase (wild-type allele) (human) (UniProt Q96T60).
In test [4] the target is T2, CEP55 (human) (UniProt Q53EZ4).
T2 sequence: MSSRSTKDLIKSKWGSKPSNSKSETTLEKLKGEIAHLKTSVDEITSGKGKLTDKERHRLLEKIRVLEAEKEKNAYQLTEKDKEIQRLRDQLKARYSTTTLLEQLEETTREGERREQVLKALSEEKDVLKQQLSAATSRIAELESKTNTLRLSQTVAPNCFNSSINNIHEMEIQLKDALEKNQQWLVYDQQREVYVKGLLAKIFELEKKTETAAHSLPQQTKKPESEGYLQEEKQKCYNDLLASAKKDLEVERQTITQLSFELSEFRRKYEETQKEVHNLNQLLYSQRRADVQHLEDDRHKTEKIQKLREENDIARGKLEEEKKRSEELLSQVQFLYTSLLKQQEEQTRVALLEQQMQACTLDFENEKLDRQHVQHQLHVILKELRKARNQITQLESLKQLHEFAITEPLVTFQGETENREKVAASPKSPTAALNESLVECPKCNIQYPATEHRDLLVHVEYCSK

The target of test [5] is T3, HPRT1 (human) (UniProt P00492).
T3 sequence: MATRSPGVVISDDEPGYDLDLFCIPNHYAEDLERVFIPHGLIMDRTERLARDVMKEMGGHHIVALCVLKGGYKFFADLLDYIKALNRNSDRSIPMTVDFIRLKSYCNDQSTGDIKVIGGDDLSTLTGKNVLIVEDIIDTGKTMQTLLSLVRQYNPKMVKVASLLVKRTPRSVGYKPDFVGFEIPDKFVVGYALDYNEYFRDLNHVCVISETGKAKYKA

Test [6] deals with ARL6IP1 (human) (UniProt Q15041).
In test [7] the target is T4, IER3IP1 (human) (UniProt Q9Y5U9).
T4 sequence: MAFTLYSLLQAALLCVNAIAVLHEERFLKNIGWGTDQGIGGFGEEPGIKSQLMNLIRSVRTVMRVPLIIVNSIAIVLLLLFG

For test [8], the target named is MFSD6 (human) (UniProt Q6ZSS7).
Test [9] addresses T5, BCL2L2 (human) (UniProt Q92843).
T5 sequence: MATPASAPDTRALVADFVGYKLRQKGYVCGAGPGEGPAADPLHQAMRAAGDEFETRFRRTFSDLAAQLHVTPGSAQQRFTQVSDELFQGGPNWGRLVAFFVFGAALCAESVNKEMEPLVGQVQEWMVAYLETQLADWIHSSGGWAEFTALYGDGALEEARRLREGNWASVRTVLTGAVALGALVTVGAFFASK

The target of test [10] is MAPK9 (human) (UniProt P45984).
Test [11] concerns the target DYNLL1 (human) (UniProt P63167).
In test [12] the target is PNKP Pro20Ser (human) (UniProt Q96T60). This is another data set of the same source.
The target of test [13] is PNKP, polynucleotide kinase 3'-phosphatase (wild-type allele) (human) (UniProt Q96T60). The source holds these as a separate data set.
Test [14] addresses ARL6IP1 (human) (UniProt Q15041). The source holds these as a separate data set.
The target of test [15] is T4, IER3IP1 (human). The source holds these as a separate data set.
In test [16] the target is MFSD6 (human) (UniProt Q6ZSS7). This is another data set of the same source.
Test [17] addresses T6, CTNNA3 (human) (UniProt Q9UI47).
T6 sequence: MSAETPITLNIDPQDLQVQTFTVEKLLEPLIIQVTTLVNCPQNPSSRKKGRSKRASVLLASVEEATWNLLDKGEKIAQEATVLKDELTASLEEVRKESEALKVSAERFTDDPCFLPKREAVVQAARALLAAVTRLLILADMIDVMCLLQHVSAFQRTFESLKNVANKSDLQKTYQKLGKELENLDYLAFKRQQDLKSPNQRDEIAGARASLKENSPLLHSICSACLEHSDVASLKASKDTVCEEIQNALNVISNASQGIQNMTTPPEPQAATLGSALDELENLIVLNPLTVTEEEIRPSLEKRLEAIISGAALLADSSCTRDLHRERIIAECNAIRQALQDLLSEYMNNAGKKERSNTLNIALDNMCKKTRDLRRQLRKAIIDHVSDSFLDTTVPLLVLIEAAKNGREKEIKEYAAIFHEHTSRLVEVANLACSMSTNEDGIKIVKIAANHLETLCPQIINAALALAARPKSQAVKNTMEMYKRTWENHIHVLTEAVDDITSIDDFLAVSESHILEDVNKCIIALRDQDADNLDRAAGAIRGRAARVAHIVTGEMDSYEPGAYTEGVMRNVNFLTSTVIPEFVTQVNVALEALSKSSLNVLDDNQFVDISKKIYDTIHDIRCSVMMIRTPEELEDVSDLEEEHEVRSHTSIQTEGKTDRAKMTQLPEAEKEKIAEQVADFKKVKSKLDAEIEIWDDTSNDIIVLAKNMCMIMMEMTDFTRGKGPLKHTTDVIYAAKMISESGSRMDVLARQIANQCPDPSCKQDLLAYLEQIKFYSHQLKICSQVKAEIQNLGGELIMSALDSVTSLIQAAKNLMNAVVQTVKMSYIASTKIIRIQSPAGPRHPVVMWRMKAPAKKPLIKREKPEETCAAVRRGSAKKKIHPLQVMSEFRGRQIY

Like-named read-outs stand apart in the source and are kept apart here. These are yes or no findings as the source states them, for the method shown. Some results given as binding are weak or reduced against the parent protein; the word gives no strength.

Consider ARL6IP1 (from UniProt Q15041 1-203), for which the binding entry in test [1] is on record as “binds”.
As to TRIM37 (from UniProt O94972 1-964), the binding entry in test [2] and in test [3] was “binds” in each case.
As for “SDCBP (syntenin-1) (from UniProt O00560 1-298)”, the binding result in [4] and in test [5] was “binds” throughout.
Take C19ORF18 (from UniProt Q8NEA5 1-215): the binding result in [6], in test [7] and in [8] was “binds” throughout.

B1: C6ORF222 (protein, UniProt P0C671 1-652)
chain: MENPRCPRRPLAEKKARSLDRPQAPGKGSESWDCHWLSLPTAPSRKALHWTTSDWARHSDSPAPSAEAHCTTAAAPTPEETGDFLPSEQRPSQDTKKGWLKTMLNFFVRTGPEEPREKASRRPRGKEGISQHPEPLEAAGEPALRKKAHHDKKPSRKKQGHKKHAAEVTKAAQDQEARGREEGLSKAAAALRSGEADLGPARRGGEDSDHQSFLIKVDGTGALDVSPHATGHQQEEELKKPDQDAIIQMIVELLKRVGDQWEEEQSLASQLGVALPNPAPAVRKKSQEKKTSLKRTSKTNPKKHGSEEAKRGAADVSSPEAWPPKKSSFLPLCVSGHRPSISSSYGLEEPKVQEAPSTEAGAPGPSVLPTPSESQEPGEELPLDRASEYKEFIQKIISMLQDAEEQQGEEQPQVQQEEVGVENPAPHCRRKSQEKRSSFRRAFYHKKHTSKEPRRAGAAGAASPEARRPKRPSFLPLCVGGHRPSTSSSLDPEDLECREPLPAEGEPVVISEAPSQARGHTPEGAPQLSGACESKEIIIQKLVALLQEVDGQLGQQIRRHPSFKRFFYEFSDSSLSKLVATLRSQVAHSSKLDRNRARRLYQFDVSLANKFAGSNSHAMCILMGLRDHYNCTQFPYREDQPNITSPKVESPD
Take B1: the binding entry in test [9] and in test [10] was “binds” throughout.

B2: OTUD6A (protein, UniProt Q7L8S5 1-288)
chain: MDDPKSEQQRILRRHQRERQELQAQIRSLKNSVPKTDKTKRKQLLQDVARMEAEMAQKHRQELEKFQDDSSIESVVEDLAKMNLENRPPRSSKAHRKRERMESEERERQESIFQAEMSEHLAGFKREEEEKLAAILGARGLEMKAIPADGHCMYRAIQDQLVFSVSVEMLRCRTASYMKKHVDEFLPFFSNPETSDSFGYDDFMIYCDNIVRTTAWGGQLELRALSHVLKTPIEVIQADSPTLIIGEEYVKKPIILVYLRYAYSLGEHYNSVTPLEAGAAGGVLPRLL
On to B2, for which, in [11], the binding result is recorded as “binds”.

B3: SYNGR1 (protein, UniProt O43759 1-233)
chain: MEGGAYGAGKAGGAFDPYTLVRQPHTILRVVSWLFSIVVFGSIVNEGYLNSASEGEEFCIYNRNPNACSYGVAVGVLAFLTCLLYLALDVYFPQISSVKDRKKAVLSDIGVSAFWAFLWFVGFCYLANQWQVSKPKDNPLNEGTDAARAAIAFSFFSIFTWAGQAVLAFQRYQIGADSALFSQDYMDPSQDSSMPYAPYVEPTGPDPAGMGGTYQQPANTFDTEPQGYQSQGY
Take B3: the binding result in [12] and in test [13] was “binds” each time.

B4: TMEM258 (protein, UniProt P61165 1-79)
chain: MELEAMSRYTSPVNPAVFPHLTVVLLAIGMFFTAWFFVYEVTSTKYTRDIYKELLISLVASLFMGFGVLFLLLWVGIYV
In the case of B4, the binding result in [14], in [15] and in test [16] was “binds” throughout.

B5: TRIM54 (protein, UniProt Q9BYV2 1-358)
chain: MNFTVGFKPLLGDAHSMDNLEKQLICPICLEMFSKPVVILPCQHNLCRKCANDVFQASNPLWQSRGSTTVSSGGRFRCPSCRHEVVLDRHGVYGLQRNLLVENIIDIYKQESSRPLHSKAEQHLMCEEHEEEKINIYCLSCEVPTCSLCKVFGAHKDCEVAPLPTIYKRQKSELSDGIAMLVAGNDRVQAVITQMEEVCQTIEDNSRRQKQLLNQRFESLCAVLEERKGELLQALAREQEEKLQRVRGLIRQYGDHLEASSKLVESAIQSMEEPQMALYLQQAKELINKVGAMSKVELAGRPEPGYESMEQFTVRVEHVAEMLRTIDFQPGASGEEEEVAPDGEEGSAGPEEERPDGP
With B5, the binding entry in test [17] is on record as “binds”.
